± gives the standard deviation of the averaged measurements. The data scatter; read single values as rough.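 Each test well overexpressed one poorly characterized human cDNA in ERalpha-negative HeLa cells together with transfected ERalpha and a reporter carrying two estrogen response elements. A gene counted as a repressor hit if it cut the signal to the level of the BRCA1 positive control (about 0.6 of empty vector) or lower.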
test system: ERE-luciferase reporter with exogenous ERalpha in HeLa cells; assay: relative ERE luciferase activity (Firefly/Renilla) upon cDNA overexpression, relative to empty vector (fold of empty vector); higher = stronger ERalpha transactivation (less repression); settings: 17beta-estradiol: 10 nM; 12 h

Question: With “MATLARLQARSSTVGNQYYFRNSVVDPFRKKENDAAVKIQSWFRGCQVRAYIRHLNRIVTIIQKWWRSFLGRKQYQLTVQVAYYTMMMNLYNAMAVRIQRRWRGYRVRKYLFNYYYLKEYLKVVSETNDAIRKALEEFAEMKEREEKKANLEREEKKRDYQARKMHYLLSTKQIPGIYNSPFRKEPDPWELQLQKAKPLTHRRPKVKQKDSTSLTDWLACTSARSFPRSEILPPINRKQCQGPFRDITEVLEQRYRPLEPTLRVAEPIDELKLAREELRREEWLQNVNDNMFLPFSSYHKNEKYIPSMHLSSKYGPISYKEQFRSENPKKWICDKDFQTVLPSFELFSKYGKLYSKAGQIV [SPATA17]” as the sequence, how does the “relative ERE luciferase activity” value read?
Answer: Its value is 1.03.

Question: “MAVPAKKRKMNFSEREVEIIVEELELKKHLLVNHFNAGVPLAAKSAAWHGILRRVNAVATCRRELPEVKKKWSDLKTEVRRKVAQVRAAVEGGEAPGPTEEDGAGGPGTGGGSGGGGPAVAPVLLTPMQQRICNLLGEATIISLPSTTEIHPVALGPSATAAAATVTLTQIPTETTYHTLEEGVVEYCTAEAPPPLPPETPVDMMAQHADTSVKPQALKSRIALNSAKLIQEQRVTNLHVKEIAQHLEQQNDLLQMIRRSQEVQACAQERQAQAMEGTQAALSVLIQVLRPMIKDFRRYLQSNTANPAPASDPGQVAQNGQPDSIIQ [C9orf90]” was tested. Which “relative ERE luciferase activity” value did it give?
Answer: The value was 1.22.

Question: With “MCVRRSLVGLTFCTCYLASYLTNKYVLSVLKFTYPTLFQGWQTLIGGLLLHVSWKLGWVEINSSSRSHVLVWLPASVLFVGIIYAGSRALSRLAIPVFLTLHNVAEVIICGYQKCFQKEKTSPAKICSALLLLAAAGCLPFNDSQFNPDGYFWAIIHLLCVGAYKILQKSQKPSALSDIDQQYLNYIFSVVLLAFASHPTGDLFSVLDFPFLYFYRFHGSCCASGFLGFFLMFSTVKLKNLLAPGQCAAWIFFAKIITAGLSILLFDAILTSATTGCLLLGALGEALLVFSERKSS [C18orf45]” as the sequence, how does the “relative ERE luciferase activity” value read?
Answer: The value was 1.11.

Question: How did the “relative ERE luciferase activity” value turn out when “MDAGKAGQTLKTHCSAQRPDVCRWLSPFILSCCVYFCLWIPEDQLSWFAALVKCLPVLCLAGFLWVMSPSGGYTQLLQGALVCSAVGDACLIWPAAFVPGMAAFATAHLLYVWAFGFSPLQPGLLLLIILAPGPYLSLVLQHLEPDMVLPVAAYGLILMAMLWRGLAQGGSAGWGALLFTLSDGVLAWDTFAQPLPHAHLVIMTTYYAAQLLITLSALRSPVPKTD [TMEM86B]” was run?
Answer: The value was 1.12.

Question: “MDDPKSEQQRILRRHQRERQELQAQIRSLKNSVPKTDKTKRKQLLQDVARMEAEMAQKHRQELEKFQDDSSIESVVEDLAKMNLENRPPRSSKAHRKRERMESEERERQESIFQAEMSEHLAGFKREEEEKLAAILGARGLEMKAIPADGHCMYRAIQDQLVFSVSVEMLRCRTASYMKKHVDEFLPFFSNPETSDSFGYDDFMIYCDNIVRTTAWGGQLELRALSHVLKTPIEVIQADSPTLIIGEEYVKKPIILVYLRYAYSLGEHYNSVTPLEAGAAGGVLPRLL [OTUD6A]” was tested. Which “relative ERE luciferase activity” value did it give?
Answer: Its value is 2.63.

Question: Which “relative ERE luciferase activity” value does the source give for “MDDREDLVYQAKLAEQAERYDEMVESMKKVAGMDVELTVEERNLLSVAYKNVIGARRASWRIISSIEQKEENKGGEDKLKMIREYRQMVETELKLICCDILDVLDKHLIPAANTGESKVFYYKMKGDYHRYLAEFATGNDRKEAAENSLVAYKAASDIAMTELPPTHPIRLGLALNFSVFYYEILNSPDRACRLAKAAFDDAIAELDTLSEESYKDSTLIMQLLRDNLTLWTSDMQGDGEEQNKEALQDVEDENQ [YWHAE]” here?
Answer: The value was 1.02.

Question: “MDETQGPLAMTVHLLANSGHGSLLQRTLDQLLDCICPEVRLFQVSERASPVKYCEKSHSKRSRFPGMSVLLFLHESPGEDRLFRVLDSLQHSPWQCYPTQDTRGRLCPYFFANQEFYSLDSQLPIWGVRQVHCGSEILRVTLYCSFDNYEDAIRLYEMILQREATLQKSNFCFFVLYASKSFALQLSLKQLPPGMSVDPKESSVLQFKVQEIGQLVPLLPNPCMPISSTRWQTQDYDGNKILLQVQLNPELGVKNGILGAGMLPLGSRLTSVSAKRTSEPRSQRNQGKRSQGHSLELPEPSGSPTSDRCAGTSWKSPGRSFQVSSPAMGAHLHLSSHHLESGARMKVLNRENSFQKLEAETNVDTGLTIINSEPRQTYFGGFPRDLQTSQPPFCLPASSLGVATSKNNSVLKERVSPLPLAGQRDLGTRKTISECLLHLQVQGEEKEEDEEEFFI [FAM124B]” was tested. Which “relative ERE luciferase activity” value did it give?
Answer: Its value is 1.18 ± 0.12.

Question: With “MDGVTPTLSTIRGRTLESSTLHVTPRSLDRNKDQITNIFSGFAGLLAILLVVAVFCILWNWNKRKKRQVPYLRVTVMPLLTLPQTRQRAKNIYDILPWRQEDLGRHESRSMRIFSTESLLSRNSESPEHVPSQAGNAFQEHTAHIHATEYAVGIYDNAMVPQMCGNLTPSAHCINVRASRDCASISSEDSHDYVNVPTAEEIAETLASTKSPSRNLFVLPSTQKLEFTEERDEGCGDAGDCTSLYSPGAEDSDSLSNGEGSSQISNDYVNMTGLDLSAIQERQLWVAFQCCRDYENVPAADPSGSQQQAEKDVPSSNIGHVEDKTDDPGTHVQCVKRTFLASGDYADFQPFTQSEDSQMKHREEMSNEDSSDYENVLTAKLGGRDSEQGPGTQLLPDE [LAX1]” as the sequence, how does the “relative ERE luciferase activity” value read?
Answer: The value was 0.823.

Question: How did the “relative ERE luciferase activity” value turn out when “MDILKSEILRKRQLVEDRNLLVENKKYFKRSELAKKEEEAYFERCGYKIQPKEEDQKPLTSSNPVLELELAEEKLPMTLSRQEVIRRLRERGEPIRLFGETDYDAFQRLRKIEILTPEVNKGLRNDLKAALDKIDQQYLNEIVGGQEPGEEDTQNDLKVHEENTTIEELEALGESLGKGDDHKDMDIITKFLKFLLGVWAKELNAREDYVKRSVQGKLNSATQKQTESYLRPLFRKLRKRNLPADIKESITDIIKFMLQREYVKANDAYLQMAIGNAPWPIGVTMVGIHARTGREKIFSKHVAHVLNDETQRKYIQGLKRLMTICQKHFPTDPSKCVEYNAL [PRPF18]” was run?
Answer: Its value is 1.11.

Question: With “MDKLKKVLSGQDTEDRSGLSEVVEASSLSWSTRIKGFIACFAIGILCSLLGTVLLWVPRKGLHLFAVFYTFGNIASIGSTIFLMGPVKQLKRMFEPTRLIATIMVLLCFALTLCSAFWWHNKGLALIFCILQSLALTWYSLSFIPFARDAVKKCFAVCLA [SFT2D2]” as the sequence, how does the “relative ERE luciferase activity” value read?
Answer: The value was 1.11.

Question: With “MDLLFGRRKTPEELLRQNQRALNRAMRELDRERQKLETQEKKIIADIKKMAKQGQMDAVRIMAKDLVRTRRYVRKFVLMRANIQAVSLKIQTLKSNNSMAQAMKGVTKAMGTMNRQLKLPQIQKIMMEFERQAEIMDMKEEMMNDAIDDAMGDEEDEEESDAVVSQVLDELGLSLTDELSNLPSTGGSLSVAAGGKKAEAAASALADADADLEERLKNLRRD [CHMP2A]” as the sequence, how does the “relative ERE luciferase activity” value read?
Answer: Its value is 1.21.

Question: With “MDLSFMAAQLPMMGGAFMDSPNEDFSTEYSLFNSSANVHAAANGQGQPEDPPRSSNDAVLLWIAIIATLGNIVVVGVVYAFTF [C14orf132]” as the sequence, how does the “relative ERE luciferase activity” value read?
Answer: The value was 0.93 ± 0.33.

Question: How did the “relative ERE luciferase activity” value turn out when “MDPEVTLLLQCPGGGLPQEQIQAELSPAHDRRPLPGGDEAITAIWETRLKAQPWLFDAPKFRLHSATLAPIGSRGPQLLLRLGLTSYRDFLGTNWSSSAAWLRQQGATDWGDTQAYLADPLGVGAALATADDFLVFLRRSRQVAEAPGLVDVPGGHPEPQALCPGGSPQHQDLAGQLVVHELFSSVLQEICDEVNLPLLTLSQPLLLGIARNETSAGRASAEFYVQCSLTSEQVRKHYLSGGPEAHESTGIFFVETQNVQRLLETEMWAELCPSAKGAIILYNRVQGSPTGAALGSPALLPPL [NUDT22]” was run?
Answer: The value was 1.61.

Question: “MDPSLLRERELFKKRALSTPVVEKRSASSESSSSSSKKKKTKVEHGGSSGSKQNSDHSNGSFNLKALSGSSGYKFGVLAKIVNYMKTRHQRGDTHPLTLDEILDETQHLDIGLKQKQWLMTEALVNNPKIEVIDGKYAFKPKYNVRDKKALLRLLDQHDQRGLGGILLEDIEEALPNSQKAVKALGDQILFVNRPDKKKILFFNDKSCQFSVDEEFQKLWRSVTVDSMDEEKIEEYLKRQGISSMQESGPKKVAPIQRRKKPASQKKRRFKTHNEHLAGVLKDYSDITSSK [GTF2E2]” was tested. Which “relative ERE luciferase activity” value did it give?
Answer: Its value is 0.763.

Question: Which “relative ERE luciferase activity” value does the source give for “MDQCVTVERELEKVLHKFSGYGQLCERGLEELIDYTGGLKHEILQSHGQDAELSGTLSLVLTQCCKRIKDTVQKLASDHKDIHSSVSRVGKAIDKNFDSDISSVGIDGCWQADSQRLLNEVMVEHFFRQGMLDVAEELCQESGLSVDPSQKEPFVELNRILEALKVRVLRPALEWAVSNREMLIAQNSSLEFKLHRLYFISLLMGGTTNQREALQYAKNFQPFALNHQKDIQVLMGSLVYLRQGIENSPYVHLLDANQWADICDIFTRDACALLGLSVESPLSVSFSAGCVALPALINIKAVIEQRQCTGVWNQKDELPIEVDLGKKCWYHSIFACPILRQQTTDNNPPMKLVCGHIISRDALNKMFNGSKLKCPYCPMEQSPGDAKQIFF [RMND5A]” here?
Answer: Its value is 0.843.

Question: How did the “relative ERE luciferase activity” value turn out when “MDQKILSLAAEKTADKLQEFLQTLREGDLTNLLQNQAVKGKVAGALLRAIFKGSPCSEEAGTLRRRKIYTCCIQLVESGDLQKEIASEIIGLLMLEAHHFPGPLLVELANEFISAVREGSLVNGKSLELLPIILTALATKKENLAYGKGVLSGEECKKQLINTLCSGRWDQQYVIQLTSMFKDVPLTAEEVEFVVEKALSMFSKMNLQEIPPLVYQLLVLSSKGSRKSVLEGIIAFFSALDKQHNEEQSGDELLDVVTVPSGELRHVEGTIILHIVFAIKLDYELGRELVKHLKVGQQGDSNNNLSPFSIALLLSVTRIQRFQDQVLDLLKTSVVKSFKDLQLLQGSKFLQNLVPHRSYVSTMILEVVKNSVHSWDHVTQGLVELGFILMDSYGPKKVLDGKTIETSPSLSRMPNQHACKLGANILLETFKIHEMIRQEILEQVLNRVVTRASSPISHFLDLLSNIVMYAPLVLQSCSSKVTEAFDYLSFLPLQTVQRLLKAVQPLLKVSMSMRDCLILVLRKAMFANQLDARKSAVAGFLLLLKNFKVLGSLSSSQCSQSLSVSQVHVDVHSHYNSVANETFCLEIMDSLRRCLSQQADVRLMLYEGFYDVLRRNSQLANSVMQTLLSQLKQFYEPKPDLLPPLKLEACILTQGDKISLQEPLDYLLCCIQHCLAWYKNTVIPLQQGEEEEEEEEAFYEDLDDILESITNRMIKSELEDFELDKSADFSQSTSIGIKNNICAFLVMGVCEVLIEYNFSISSFSKNRFEDILSLFMCYKKLSDILNEKAGKAKTKMANKTSDSLLSMKFVSSLLTALFRDSIQSHQESLSVLRSSNEFMRYAVNVALQKVQQLKETGHVSGPDGQNPEKIFQNLCDITRVLLWRYTSIPTSVEESGKKEKGKSISLLCLEGLQKIFSAVQQFYQPKIQQFLRALDVTDKEGEEREDADVSVTQRTAFQIRQFQRSLLNLLSSQEEDFNSKEALLLVTVLTSLSKLLEPSSPQFVQMLSWTSKICKENSREDALFCKSLMNLLFSLHVSYKSPVILLRDLSQDIHGHLGDIDQDVEVEKTNHFAIVNLRTAAPTVCLLVLSQAEKVLEEVDWLITKLKGQVSQETLSEEASSQATLPNQPVEKAIIMQLGTLLTFFHELVQTALPSGSCVDTLLKDLCKMYTTLTALVRYYLQVCQSSGGIPKNMEKLVKLSGSHLTPLCYSFISYVQNKSKSLNYTGEKKEKPAAVATAMARVLRETKPIPNLIFAIEQYEKFLIHLSKKSKVNLMQHMKLSTSRDFKIKGNILDMVLREDGEDENEEGTASEHGGQNKEPAKKKRKK [FANCI]” was run?
Answer: Its value is 1.06 ± 0.19.
